From the supplement of paper PMC10689618
Structures can show the parent of a compound that is named as a salt. The list shows a part of the results. Repeats are few or missing, and single values can be far off.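 Labelled rat cortical synaptosomes were engulfed by primary human fetal astrocytes. Engulfment equaled a red/green ratio, corrected for calcein live-cell signal and normalized to the plate median. Compounds were toxic when calcein dropped over 30%, and reduced phagocytosis when below 70% of the median above 5 µM.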

How the values were obtained:
Conditions in all cases: 24 h
Human fetal astrocytes [1] = assay: loss of total cells relative to no-compound high-control median (toxicity); higher = more toxic (fewer cells)
Human fetal astrocytes [2] = assay: as above; remark: listed apart in the source
Human fetal astrocytes [3] = assay: synaptosome phagocytosis (pHrodo/calcein intensity ratio) relative to plate median of data wells; higher = more phagocytosis

## O=C1C=CC2=C3c4cc(O)c(O)cc4CC3(O)COC2=C1 (stereo not drawn)
Human fetal astrocytes [1]; 1.39 µM
  loss of total cells: -1.1%
Human fetal astrocytes [1]; 2.78 µM
  loss of total cells: 3.3%
Human fetal astrocytes [1]; 5.56 µM
  loss of total cells: 16.8%
Human fetal astrocytes [1]; 11.11 µM
  loss of total cells: 31%
Human fetal astrocytes [1]; 22.22 µM
  loss of total cells: 23.3%

## CSC(=N)N [S-Methylisothiourea hemisulfate]
Human fetal astrocytes [2]; 1.39 µM
  loss of total cells: -16.6%
Human fetal astrocytes [2]; 2.78 µM
  loss of total cells: 5%
Human fetal astrocytes [2]; 5.56 µM
  loss of total cells: 5.2%
Human fetal astrocytes [2]; 11.11 µM
  loss of total cells: 6.7%
Human fetal astrocytes [2]; 22.22 µM
  loss of total cells: 5.6%
Human fetal astrocytes [3]; 1.39 µM
  synaptosome phagocytosis: 95.2%
Human fetal astrocytes [3]; 2.78 µM
  synaptosome phagocytosis: 118%
Human fetal astrocytes [3]; 5.56 µM
  synaptosome phagocytosis: 128%
Human fetal astrocytes [3]; 11.11 µM
  synaptosome phagocytosis: 124%
Human fetal astrocytes [3]; 22.22 µM
  synaptosome phagocytosis: 92.4%

## CCCNC[C@H](O)COc1ccccc1C(=O)CCc1ccccc1 [(S)-(-)-propafenone hydrochloride]
Human fetal astrocytes [2]; 1.39 µM
  loss of total cells: -13.4%
Human fetal astrocytes [2]; 2.78 µM
  loss of total cells: -12.3%
Human fetal astrocytes [2]; 5.56 µM
  loss of total cells: -1.7%
Human fetal astrocytes [2]; 11.11 µM
  loss of total cells: -20.3%
Human fetal astrocytes [2]; 22.22 µM
  loss of total cells: -21.4%
Human fetal astrocytes [3]; 1.39 µM
  synaptosome phagocytosis: 93.3%
Human fetal astrocytes [3]; 2.78 µM
  synaptosome phagocytosis: 80.7%
Human fetal astrocytes [3]; 5.56 µM
  synaptosome phagocytosis: 71%
Human fetal astrocytes [3]; 11.11 µM
  synaptosome phagocytosis: 97.4%
Human fetal astrocytes [3]; 22.22 µM
  synaptosome phagocytosis: 89.2%

## COc1ccc([C@@H]2Sc3ccccc3N(CCN(C)C)C(=O)[C@@H]2OC(C)=O)cc1 [Diltiazem hydrochloride]
Human fetal astrocytes [2]; 1.39 µM
  loss of total cells: 9.6%
Human fetal astrocytes [2]; 2.78 µM
  loss of total cells: -9.4%
Human fetal astrocytes [2]; 5.56 µM
  loss of total cells: -7.4%
Human fetal astrocytes [2]; 11.11 µM
  loss of total cells: -9.4%
Human fetal astrocytes [3]; 1.39 µM
  synaptosome phagocytosis: 81.6%
Human fetal astrocytes [3]; 2.78 µM
  synaptosome phagocytosis: 93.9%
Human fetal astrocytes [3]; 5.56 µM
  synaptosome phagocytosis: 84.8%
Human fetal astrocytes [3]; 11.11 µM
  synaptosome phagocytosis: 100%

## COc1ccc2c(=O)c(CC(=O)O)coc2c1
Human fetal astrocytes [1]; 1.39 µM
  loss of total cells: -7.6%
Human fetal astrocytes [1]; 2.78 µM
  loss of total cells: 8%
Human fetal astrocytes [1]; 5.56 µM
  loss of total cells: -13.7%
Human fetal astrocytes [1]; 11.11 µM
  loss of total cells: 9.7%
Human fetal astrocytes [1]; 22.22 µM
  loss of total cells: -3.3%
